PubChem BioAssay AID1159578 – Peter MacCallum Cancer Centre – 2015
This is one part, drawn at random, of about 18,000 deposited reagents. Over the whole deposit, about 1,030 (5.7%) were called active. 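Inactive calls also include pools with fewer than 3300 nuclei, whose migration was not assessed.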 Raw values are not corrected between plates.

Assay: 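Genome-wide hunt for genes controlling movement of lymphatic endothelial cells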 (primary screen)
System: human lymphatic endothelial cells
Knock-down reagent: siRNA pool against human genes, 40 nM
Time to read-out: 48 h after transfection
Measurement: 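Cells stained with dye and imaged after a scratch; covered wound area and nuclei counted, duplicates averaged, migration set against mock wells and turned into a robust z-score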
Reading the numbers: migration robust z-score: higher = faster migration into the scratch; migration relative to mock: higher = more scratch area covered than mock; nuclei per well: higher = more cells in the well
Active means: 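Migration changed when robust z exceeds 2 or falls below -2 and mean nuclei number is at least 3300; otherwise not called changed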
Calls: active = migration changed; inactive = no migration change, or too few cells

| gene | migration robust z-score | migration class with cell-count check | migration relative to mock | nuclei per well, duplicate mean | call |
| --- | --- | --- | --- | --- | --- |
| POGLUT3 (protein O-glucosyltransferase 3) | -2.39 | migration z below -2; enough cells | 0.27 | 6418 | active |
| SORBS3 (sorbin and SH3 domain containing 3) | 1.26 | migration z between -2 and 2; enough cells | 1.22 | 6782 | inactive |
| APOBR (apolipoprotein B receptor) | 0.28 | migration z between -2 and 2; enough cells | 0.96 | 5542 | inactive |
| RPL17 (ribosomal protein L17) | 0.04 | migration z between -2 and 2; enough cells | 0.9 | 5432 | inactive |
| KDM3A (lysine demethylase 3A) | -1.49 | migration z between -2 and 2; enough cells | 0.5 | 5938 | inactive |
| NOL11 (nucleolar protein 11) | -0.22 | migration z between -2 and 2; enough cells | 0.83 | 5804 | inactive |
| BAZ1A (bromodomain adjacent to zinc finger domain 1A) | -0.5 | migration z between -2 and 2; enough cells | 0.76 | 5384 | inactive |
| CAPN13 (calpain 13) | -1.66 | migration z between -2 and 2; enough cells | 0.48 | 5128 | inactive |
| PRKD3 (protein kinase D3) | -3.82 | migration z below -2; enough cells | 0.07 | 3416 | active |
| PPM1F (protein phosphatase, Mg2+/Mn2+ dependent 1F) | -0.44 | migration z between -2 and 2; enough cells | 0.72 | 6318 | inactive |
| IKBKG | -0.83 | migration z between -2 and 2; enough cells | 0.64 | 5456 | inactive |
| POLR2I (RNA polymerase II subunit I) | 0.46 | migration z between -2 and 2; enough cells | 0.9 | 4763 | inactive |
| ABI3BP (ABI family member 3 binding protein) | 1.96 | migration z between -2 and 2; enough cells | 1.4 | 6804 | inactive |
| KCTD5 (potassium channel tetramerization domain containing 5) | -0.08 | migration z between -2 and 2; enough cells | 0.79 | 5386 | inactive |
| GTSF1 (gametocyte specific factor 1) | -0.86 | migration z between -2 and 2; enough cells | 0.66 | 4738 | inactive |
| MAPKAP1 (MAPK associated protein 1) | 0.52 | migration z between -2 and 2; enough cells | 0.9 | 5645 | inactive |
| RWDD2A (RWD domain containing 2A) | 0.73 | migration z between -2 and 2; enough cells | 1.08 | 5616 | inactive |
| LACRT (lacritin) | 0.48 | migration z between -2 and 2; enough cells | 1.01 | 6552 | inactive |
| TICRR (TOPBP1 interacting checkpoint and replication regulator) | 1.85 | migration z between -2 and 2; enough cells | 1.37 | 3580 | inactive |
| SLC26A7 | 0.08 | migration z between -2 and 2; enough cells | 0.82 | 5542 | inactive |
| IGFL1 (IGF like family member 1) | -0.88 | migration z between -2 and 2; enough cells | 0.66 | 6192 | inactive |
| FANCE (FA complementation group E) | -0.07 | migration z between -2 and 2; enough cells | 0.86 | 5693 | inactive |
| FLVCR1 (FLVCR choline and heme transporter 1) | -0.31 | migration z between -2 and 2; enough cells | 0.74 | 6068 | inactive |
| PFKFB1 (6-phosphofructo-2-kinase/fructose-2,6-biphosphatase 1) | -1.15 | migration z between -2 and 2; enough cells | 0.58 | 6016 | inactive |
| TSGA10 (testis specific 10) | -0.62 | migration z between -2 and 2; enough cells | 0.73 | 5202 | inactive |
| MTR (5-methyltetrahydrofolate-homocysteine methyltransferase) | -2.59 | migration z below -2; enough cells | 0.3 | 4620 | active |
| CLSTN3 (calsyntenin 3) | -0.72 | migration z between -2 and 2; enough cells | 0.7 | 5366 | inactive |
| CKS2 (CDC28 protein kinase regulatory subunit 2) | 0.7 | migration z between -2 and 2; enough cells | 0.94 | 4874 | inactive |
| MTIF2 (mitochondrial translational initiation factor 2) | 1.5 | migration z between -2 and 2; enough cells | 1.09 | 6175 | inactive |
| SLC35A5 | 0.36 | migration z between -2 and 2; enough cells | 0.88 | 4848 | inactive |
| TMEM215 (transmembrane protein 215) | -0.05 | migration z between -2 and 2; enough cells | 0.87 | 5794 | inactive |
| PDLIM2 (PDZ and LIM domain 2) | 0.16 | migration z between -2 and 2; enough cells | 0.92 | 6032 | inactive |
| BCAS1 (brain enriched myelin associated protein 1) | 2.11 | migration z above 2; enough cells | 1.44 | 7695 | active |
| TEX55 (testis expressed 55) | -1.72 | migration z between -2 and 2; enough cells | 0.44 | 6358 | inactive |
| ZNF266 (zinc finger protein 266) | 0.78 | migration z between -2 and 2; enough cells | 1.09 | 4730 | inactive |
| CELF1 (CUGBP Elav-like family member 1) | 0 | migration z between -2 and 2; enough cells | 0.8 | 6465 | inactive |
| ADARB1 (adenosine deaminase RNA specific B1) | 1.2 | migration z between -2 and 2; enough cells | 1.19 | 5244 | inactive |
| PITX1 (paired like homeodomain 1) | 1.48 | migration z between -2 and 2; enough cells | 1.09 | 5536 | inactive |
| ELOC (elongin C) | 0.26 | migration z between -2 and 2; enough cells | 0.86 | 6199 | inactive |
| PCSK4 (proprotein convertase subtilisin/kexin type 4) | 1.06 | migration z between -2 and 2; enough cells | 1.01 | 5724 | inactive |
| EID3 (EP300 interacting inhibitor of differentiation 3) | -0.48 | migration z between -2 and 2; enough cells | 0.76 | 4854 | inactive |
| CACNB1 (calcium voltage-gated channel auxiliary subunit beta 1) | -0.65 | migration z between -2 and 2; enough cells | 0.68 | 5206 | inactive |
| PCBP4 (poly(rC) binding protein 4) | 1.06 | migration z between -2 and 2; enough cells | 1.16 | 4752 | inactive |
| PSMA2 (proteasome 20S subunit alpha 2) | -2.08 | migration z below -2; enough cells | 0.4 | 5400 | active |
| NDUFA2 (NADH:ubiquinone oxidoreductase subunit A2) | -1.94 | migration z between -2 and 2; enough cells | 0.43 | 3454 | inactive |
| TNFSF9 (TNF superfamily member 9) | 0.54 | migration z between -2 and 2; enough cells | 1.04 | 5796 | inactive |
| LEPR (leptin receptor) | 1.04 | migration z between -2 and 2; enough cells | 1 | 5599 | inactive |
| HHEX (hematopoietically expressed homeobox) | -0.76 | migration z between -2 and 2; enough cells | 0.66 | 4522 | inactive |
| MRPL55 (mitochondrial ribosomal protein L55) | 0 | migration z between -2 and 2; enough cells | 0.88 | 6579 | inactive |
| SCARB1 (scavenger receptor class B member 1) | -1.06 | migration z between -2 and 2; enough cells | 0.6 | 6238 | inactive |
| UBAC1 (UBA domain containing 1) | -0.17 | migration z between -2 and 2; enough cells | 0.84 | 6432 | inactive |
| IL18BP (interleukin 18 binding protein) | 1.28 | migration z between -2 and 2; enough cells | 1.22 | 5447 | inactive |
| CFAP77 (cilia and flagella associated protein 77) | -1.02 | migration z between -2 and 2; enough cells | 0.62 | 5780 | inactive |
| ZNF570 (zinc finger protein 570) | -1.12 | migration z between -2 and 2; enough cells | 0.6 | 5878 | inactive |
| QRSL1 (glutaminyl-tRNA amidotransferase subunit QRSL1) | 0.18 | migration z between -2 and 2; enough cells | 0.84 | 6172 | inactive |
| TRA2A (transformer 2 alpha homolog) | 1.1 | migration z between -2 and 2; enough cells | 1.17 | 4374 | inactive |
| AHCY (adenosylhomocysteinase) | -2.59 | migration z below -2; enough cells | 0.3 | 3891 | active |
| H4C8 (H4 clustered histone 8) | 1 | migration z between -2 and 2; enough cells | 1.14 | 5170 | inactive |
| CEBPG (CCAAT enhancer binding protein gamma) | -1.04 | migration z between -2 and 2; enough cells | 0.6 | 4658 | inactive |
| SLC7A6OS | 1.12 | migration z between -2 and 2; enough cells | 1.17 | 5489 | inactive |
| LAMTOR5 (late endosomal/lysosomal adaptor, MAPK and MTOR activator 5) | 0.26 | migration z between -2 and 2; enough cells | 0.95 | 5377 | inactive |
| RAD51D (RAD51 paralog D) | 0.08 | migration z between -2 and 2; enough cells | 0.82 | 6821 | inactive |
| TIMP2 (TIMP metallopeptidase inhibitor 2) | -0.13 | migration z between -2 and 2; enough cells | 0.78 | 5374 | inactive |
| HOXC13 (homeobox C13) | -0.89 | migration z between -2 and 2; enough cells | 0.66 | 6134 | inactive |
| BAK1 (BCL2 antagonist/killer 1) | -1.82 | migration z between -2 and 2; enough cells | 0.45 | 5281 | inactive |
| KCNQ3 (potassium voltage-gated channel subfamily Q member 3) | 0.21 | migration z between -2 and 2; enough cells | 0.84 | 4478 | inactive |
| CYB561D2 (cytochrome b561 family member D2) | -0.42 | migration z between -2 and 2; enough cells | 0.72 | 5300 | inactive |
| AWAT2 (acyl-CoA wax alcohol acyltransferase 2) | -1.67 | under 3300 nuclei; migration not judged | 0.45 | 3002 | inactive |
| BACE2 (beta-secretase 2) | 1.12 | migration z between -2 and 2; enough cells | 1.02 | 5412 | inactive |
| JAKMIP1 (janus kinase and microtubule interacting protein 1) | -0.02 | migration z between -2 and 2; enough cells | 0.88 | 5292 | inactive |
| RPL10L (ribosomal protein L10 like) | -3.68 | under 3300 nuclei; migration not judged | -0.08 | 2190 | inactive |
| DSCR10 (Down syndrome critical region 10) | 1.44 | migration z between -2 and 2; enough cells | 1.25 | 4971 | inactive |
| PLP2 (proteolipid protein 2) | 0.54 | migration z between -2 and 2; enough cells | 1.02 | 6036 | inactive |

Entries listed so far whose target name begins with M or m (4):
| gene | migration robust z-score | migration class with cell-count check | migration relative to mock | nuclei per well, duplicate mean | call |
| --- | --- | --- | --- | --- | --- |
| MAPKAP1 (MAPK associated protein 1) | 0.52 | migration z between -2 and 2; enough cells | 0.9 | 5645 | inactive |
| MTR (5-methyltetrahydrofolate-homocysteine methyltransferase) | -2.59 | migration z below -2; enough cells | 0.3 | 4620 | active |
| MTIF2 (mitochondrial translational initiation factor 2) | 1.5 | migration z between -2 and 2; enough cells | 1.09 | 6175 | inactive |
| MRPL55 (mitochondrial ribosomal protein L55) | 0 | migration z between -2 and 2; enough cells | 0.88 | 6579 | inactive |
